The record followed here is PMC6540285, “Evaluation of Protein Kinase Inhibitors with PLK4 Cross-Over Potential in a Pre-Clinical Model of Cancer” (International Journal of Molecular Sciences, 2019).

Common to all, as to type: cell-based
Experiment [1] deals with DAOY cells. The following applies: Homo sapiens, read-out: MTT: IC50 of the proliferation assay.
Experiment [2] deals with D283 cells. Particulars: D283, read-out: MTT: IC50 of the proliferation assay.
In experiment [3] the test system is D283 cells. The experiment can be described thus: PrestoBlue Cell Viability assay. Particulars: read-out: PB: IC50 of the PrestoBlue Viability assay. As to the method:
(§1) Cell viability was assessed using the Presto Blue™ Cell Viability reagent (Thermo Fisher Scientific, Carlsbad, CA, USA) following the manufacturer’s instructions. Cells were plated in 96-well plates at the same densities described above for the proliferation assay. The fluorescence was measured after 24, 48, 72, and 96 h at concentrations ranging from 0.001 to 10 µM of the inhibitor. All assays were performed in triplicate.

Experiment [4] deals with DAOY cells. The experiment in a line: PrestoBlue Cell Viability assay. The following applies: Homo sapiens, read-out: PB: IC50 of the PrestoBlue Viability assay. As to the method: as §1
Another experiment has as its system MON cells. The experiment can be described thus: PrestoBlue Cell Viability assay. Particulars: read-out: PB: IC50 of the PrestoBlue Viability assay. As to the method: as §1

Read-outs that look alike come from different tables or passages of the source.

In the case of `CNC(=O)c1ccccc1Sc1ccc2c(/C=C/c3ccccn3)n[nH]c2c1` [axitinib], the IC50 was 1150 nM with DAOY cells [1]; 0.394 nM in the experiment on D283 cells [2]; 0.918 nM in the experiment with D283 cells [3]; 1430 nM in the experiment on DAOY cells [4]; 4500 nM in the experiment with MON cells.
